Results taken from paper PMC11276024.

By UniProt entry, the sequences of proteins in these tests, tags left out.
UniProt P39081: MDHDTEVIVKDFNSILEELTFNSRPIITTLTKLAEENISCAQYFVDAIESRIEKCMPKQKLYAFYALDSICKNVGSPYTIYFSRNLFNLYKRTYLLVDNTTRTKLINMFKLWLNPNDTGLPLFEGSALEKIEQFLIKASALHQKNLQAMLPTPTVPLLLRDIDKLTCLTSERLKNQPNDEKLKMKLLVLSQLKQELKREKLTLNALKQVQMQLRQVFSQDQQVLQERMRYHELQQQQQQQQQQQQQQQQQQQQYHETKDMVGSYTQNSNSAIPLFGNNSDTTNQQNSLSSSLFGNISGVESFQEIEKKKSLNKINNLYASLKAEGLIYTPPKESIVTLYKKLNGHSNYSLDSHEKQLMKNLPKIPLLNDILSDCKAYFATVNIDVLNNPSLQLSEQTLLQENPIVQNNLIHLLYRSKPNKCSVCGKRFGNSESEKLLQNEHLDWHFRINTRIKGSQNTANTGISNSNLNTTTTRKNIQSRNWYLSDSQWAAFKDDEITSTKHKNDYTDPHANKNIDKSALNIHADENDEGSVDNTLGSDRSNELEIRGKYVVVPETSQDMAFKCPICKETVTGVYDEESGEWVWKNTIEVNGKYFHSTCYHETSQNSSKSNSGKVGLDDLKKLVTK

T1: TFIIB sua7-1 mutant (TFIIB^sua7-1, E62K) (S. cerevisiae) (UniProt P29055)
T1 sequence: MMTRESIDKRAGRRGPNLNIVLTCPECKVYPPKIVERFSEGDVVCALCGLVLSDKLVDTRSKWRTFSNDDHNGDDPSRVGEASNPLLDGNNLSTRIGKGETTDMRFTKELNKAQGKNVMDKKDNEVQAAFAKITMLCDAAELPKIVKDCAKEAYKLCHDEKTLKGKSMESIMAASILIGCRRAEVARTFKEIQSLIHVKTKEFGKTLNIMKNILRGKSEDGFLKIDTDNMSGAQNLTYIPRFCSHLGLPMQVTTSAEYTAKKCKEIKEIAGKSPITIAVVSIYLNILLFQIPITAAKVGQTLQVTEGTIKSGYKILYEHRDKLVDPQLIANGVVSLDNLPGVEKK

B1: Clp1 (protein, UniProt Q08685 1-445)
chain: MASLPGIDEHTTSEELITGDNEWHKLVIPKGSDWQIDLKAEGKLIVKVNSGIVEIFGTELAVDDEYTFQNWKFPIYAVEETELLWKCPDLTTNTITVKPNHTMKYIYNLHFMLEKIRMSNFEGPRVVIVGGSQTGKTSLSRTLCSYALKFNAYQPLYINLDPQQPIFTVPGCISATPISDILDAQLPTWGQSLTSGATLLHNKQPMVKNFGLERINENKDLYLECISQLGQVVGQRLHLDPQVRRSGCIVDTPSISQLDENLAELHHIIEKLNVNIMLVLCSETDPLWEKVKKTFGPELGNNNIFFIPKLDGVSAVDDVYKRSLQRTSIREYFYGSLDTALSPYAIGVDYEDLTIWKPSNVFDNEVGRVELFPVTITPSNLQHAIIAITFAERRADQATVIKSPILGFALITEVNEKRRKLRVLLPVPGRLPSKAMILTSYRYLE
B2: Rna14 (protein, UniProt P25298 1-677)
chain: MSSSTTPDLLYPSADKVAEPSDNIHGDELRLRERIKDNPTNILSYFQLIQYLETQESYAKVREVYEQFHNTFPFYSPAWTLQLKGELARDEFETVEKILAQCLSGKLENNDLSLWSTYLDYIRRKNNLITGGQEARAVIVKAFQLVMQKCAIFEPKSSSFWNEYLNFLEQWKPFNKWEEQQRIDMLREFYKKMLCVPFDNLEKMWNRYTQWEQEINSLTARKFIGELSAEYMKARSLYQEWLNVTNGLKRASPINLRTANKKNIPQPGTSDSNIQQLQIWLNWIKWERENKLMLSEDMLSQRISYVYKQGIQYMIFSAEMWYDYSMYISENSDRQNILYTALLANPDSPSLTFKLSECYELDNDSESVSNCFDKCTQTLLSQYKKIASDVNSGEDNNTEYEQELLYKQREKLTFVFCVYMNTMKRISGLSAARTVFGKCRKLKRILTHDVYVENAYLEFQNQNDYKTAFKVLELGLKYFQNDGVYINKYLDFLIFLNKDSQIKTLFETSVEKVQDLTQLKEIYKKMISYESKFGNLNNVYSLEKRFFERFPQENLIEVFTSRYQIQNSNLIKKLELTYMYNEEEDSYFSSGNGDGHHGSYNMSSSDRKRLMEETGNNGNFSNKKFKRDSELPTEVLDLLSVIPKRQYFNTNLLDAQKLVNFLNDQVEIPTVESTKSG
B3: Rna15 (protein, UniProt P25299 1-296)
chain: MNRQSGVNAGVQNNPPSRVVYLGSIPYDQTEEQILDLCSNVGPVINLKMMFDPQTGRSKGYAFIEFRDLESSASAVRNLNGYQLGSRFLKCGYSSNSDISGVSQQQQQQYNNINGNNNNNGNNNNNSNGPDFQNSGNANFLSQKFPELPSGIDVNINMTTPAMMISSELAKKPKEVQLKFLQKFQEWTRAHPEDAVSLLELCPQLSFVTAELLLTNGICKVDDLIPLASRPQEEASATNNNSVNEVVDPAVLNKQKELLKQVLQLNDSQISILPDDERMAIWDLKQKALRGEFGAF

These molecules were tested against T1, TFIIB sua7-1 mutant (TFIIB^sua7-1, E62K) (S. cerevisiae) (assay: affinity purification with mass spectrometry; TFIIB affinity purified from chromatin (and soluble) fractions of S. cerevisiae cells; purified fractions subjected to mass spectrometry; TFIIB-normalized spectral abundance factor (BNSAF); four replicates).

| Molecule | binding |
| --- | --- |
| Pcf11 (from UniProt P39081 1-626) | binds |
| B1 | binds |
| B2 | binds |
| B3 | binds |

These are yes or no findings as the source states them, for the method shown. In cells and extracts the contact can be indirect. A yes stands for co-enrichment or nearness to the bait. Other partners may have been found.
